Data from paper PMC7343241.
No constants are given. Whether binding was seen depends on the method and setting. In cells and extracts the contact can be indirect. Binding can be weak; no strength is given. For part of these data: Tags and fused reporters may be left off the sequences shown.

The chains behind the UniProt entries cited, without tags or fusion partners. Where a name states a change or a piece, a line headed by the entry shows the natural chain unless it says otherwise.
UniProt Q8TDI8: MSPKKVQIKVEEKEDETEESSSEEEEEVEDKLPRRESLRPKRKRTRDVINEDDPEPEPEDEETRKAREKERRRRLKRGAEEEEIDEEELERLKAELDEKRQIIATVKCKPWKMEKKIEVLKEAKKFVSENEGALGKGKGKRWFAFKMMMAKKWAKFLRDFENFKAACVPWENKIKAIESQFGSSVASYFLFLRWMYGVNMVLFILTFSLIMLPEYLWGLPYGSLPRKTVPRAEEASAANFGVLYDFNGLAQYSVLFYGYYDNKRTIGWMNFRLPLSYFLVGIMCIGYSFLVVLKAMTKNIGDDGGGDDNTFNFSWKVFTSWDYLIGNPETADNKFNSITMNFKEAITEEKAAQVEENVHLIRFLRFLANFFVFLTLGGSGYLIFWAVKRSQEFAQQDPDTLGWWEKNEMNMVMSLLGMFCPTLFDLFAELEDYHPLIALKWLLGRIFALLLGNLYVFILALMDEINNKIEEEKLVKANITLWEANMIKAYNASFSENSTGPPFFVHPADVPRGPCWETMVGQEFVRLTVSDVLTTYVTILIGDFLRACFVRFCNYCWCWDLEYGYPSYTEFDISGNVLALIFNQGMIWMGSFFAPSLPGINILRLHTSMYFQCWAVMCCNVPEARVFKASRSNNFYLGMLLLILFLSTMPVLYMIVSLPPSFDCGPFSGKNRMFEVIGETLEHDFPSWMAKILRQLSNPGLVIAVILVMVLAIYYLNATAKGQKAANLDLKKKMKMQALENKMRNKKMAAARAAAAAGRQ
UniProt Q93640: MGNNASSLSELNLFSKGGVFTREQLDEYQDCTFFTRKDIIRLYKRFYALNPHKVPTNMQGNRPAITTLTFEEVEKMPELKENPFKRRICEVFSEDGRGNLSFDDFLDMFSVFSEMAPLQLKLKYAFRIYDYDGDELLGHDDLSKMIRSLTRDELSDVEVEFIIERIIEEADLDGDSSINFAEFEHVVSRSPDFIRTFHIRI
UniProt O75838: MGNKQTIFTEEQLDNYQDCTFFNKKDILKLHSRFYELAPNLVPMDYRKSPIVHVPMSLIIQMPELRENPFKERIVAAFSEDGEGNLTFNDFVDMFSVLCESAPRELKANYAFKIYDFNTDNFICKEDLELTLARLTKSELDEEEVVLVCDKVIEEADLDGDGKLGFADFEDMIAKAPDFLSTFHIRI

Columns and labels:
[1] = molecular target: T1, GFP-tagged TMC-1 N-terminal fragment (TMC-1-N175-GFP) (C. elegans) (UniProt D3KZG3); test: pull-down; GFP- or V5-tagged protein from lysate held on GFP-Trap or anti-V5 agarose beads, washed, then incubated overnight at 4°C with lysate of HEK293T cells; western blot; only the target purified
T1 sequence: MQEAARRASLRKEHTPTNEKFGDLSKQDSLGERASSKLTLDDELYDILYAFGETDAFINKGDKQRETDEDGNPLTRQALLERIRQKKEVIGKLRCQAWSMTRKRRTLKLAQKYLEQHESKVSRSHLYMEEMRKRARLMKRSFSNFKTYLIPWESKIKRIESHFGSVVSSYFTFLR

[2] = molecular target: T2, C. elegans TMC-1 (CHO-K1 cells) (C. elegans) (UniProt D3KZG3); test: FRET or BRET; acceptor photobleaching FRET in transfected, fixed and immunostained CHO-K1 cells; donor EGFP, acceptor Alexa Fluor 555
T2 sequence: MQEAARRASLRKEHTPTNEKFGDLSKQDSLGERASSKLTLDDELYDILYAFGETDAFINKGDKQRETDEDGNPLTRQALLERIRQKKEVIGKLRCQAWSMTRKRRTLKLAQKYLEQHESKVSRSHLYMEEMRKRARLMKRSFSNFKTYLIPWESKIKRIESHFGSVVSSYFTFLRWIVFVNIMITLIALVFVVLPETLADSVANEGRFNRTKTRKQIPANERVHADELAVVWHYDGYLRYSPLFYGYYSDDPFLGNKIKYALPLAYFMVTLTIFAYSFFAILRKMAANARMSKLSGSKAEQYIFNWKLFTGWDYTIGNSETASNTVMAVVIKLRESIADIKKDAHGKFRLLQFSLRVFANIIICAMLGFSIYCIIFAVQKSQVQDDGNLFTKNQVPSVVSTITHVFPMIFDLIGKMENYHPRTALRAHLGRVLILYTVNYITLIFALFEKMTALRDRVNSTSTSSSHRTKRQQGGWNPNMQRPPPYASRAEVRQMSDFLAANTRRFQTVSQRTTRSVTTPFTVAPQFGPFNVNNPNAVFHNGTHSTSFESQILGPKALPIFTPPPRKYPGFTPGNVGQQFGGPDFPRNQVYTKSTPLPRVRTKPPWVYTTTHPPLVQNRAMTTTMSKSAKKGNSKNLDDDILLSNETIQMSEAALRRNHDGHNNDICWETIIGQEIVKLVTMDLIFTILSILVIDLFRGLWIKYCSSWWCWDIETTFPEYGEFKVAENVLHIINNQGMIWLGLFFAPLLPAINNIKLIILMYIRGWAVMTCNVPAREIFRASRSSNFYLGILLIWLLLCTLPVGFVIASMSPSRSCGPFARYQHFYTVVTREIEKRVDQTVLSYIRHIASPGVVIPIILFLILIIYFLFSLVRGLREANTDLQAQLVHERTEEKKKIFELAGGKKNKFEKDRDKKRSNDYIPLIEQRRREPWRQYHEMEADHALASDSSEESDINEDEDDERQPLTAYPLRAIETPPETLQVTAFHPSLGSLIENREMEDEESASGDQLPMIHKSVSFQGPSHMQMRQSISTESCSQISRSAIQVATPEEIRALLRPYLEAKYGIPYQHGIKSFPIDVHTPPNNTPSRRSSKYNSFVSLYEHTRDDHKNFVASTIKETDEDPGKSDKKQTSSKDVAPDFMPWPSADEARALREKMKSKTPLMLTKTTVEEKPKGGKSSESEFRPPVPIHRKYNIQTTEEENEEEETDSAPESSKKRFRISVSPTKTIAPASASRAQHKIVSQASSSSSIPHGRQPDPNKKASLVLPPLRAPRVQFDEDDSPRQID

[3] = molecular target: T3, C. elegans TMC-2 (FRET, CHO-K1 cells) (C. elegans) (UniProt Q11069); test: as above
T3 sequence: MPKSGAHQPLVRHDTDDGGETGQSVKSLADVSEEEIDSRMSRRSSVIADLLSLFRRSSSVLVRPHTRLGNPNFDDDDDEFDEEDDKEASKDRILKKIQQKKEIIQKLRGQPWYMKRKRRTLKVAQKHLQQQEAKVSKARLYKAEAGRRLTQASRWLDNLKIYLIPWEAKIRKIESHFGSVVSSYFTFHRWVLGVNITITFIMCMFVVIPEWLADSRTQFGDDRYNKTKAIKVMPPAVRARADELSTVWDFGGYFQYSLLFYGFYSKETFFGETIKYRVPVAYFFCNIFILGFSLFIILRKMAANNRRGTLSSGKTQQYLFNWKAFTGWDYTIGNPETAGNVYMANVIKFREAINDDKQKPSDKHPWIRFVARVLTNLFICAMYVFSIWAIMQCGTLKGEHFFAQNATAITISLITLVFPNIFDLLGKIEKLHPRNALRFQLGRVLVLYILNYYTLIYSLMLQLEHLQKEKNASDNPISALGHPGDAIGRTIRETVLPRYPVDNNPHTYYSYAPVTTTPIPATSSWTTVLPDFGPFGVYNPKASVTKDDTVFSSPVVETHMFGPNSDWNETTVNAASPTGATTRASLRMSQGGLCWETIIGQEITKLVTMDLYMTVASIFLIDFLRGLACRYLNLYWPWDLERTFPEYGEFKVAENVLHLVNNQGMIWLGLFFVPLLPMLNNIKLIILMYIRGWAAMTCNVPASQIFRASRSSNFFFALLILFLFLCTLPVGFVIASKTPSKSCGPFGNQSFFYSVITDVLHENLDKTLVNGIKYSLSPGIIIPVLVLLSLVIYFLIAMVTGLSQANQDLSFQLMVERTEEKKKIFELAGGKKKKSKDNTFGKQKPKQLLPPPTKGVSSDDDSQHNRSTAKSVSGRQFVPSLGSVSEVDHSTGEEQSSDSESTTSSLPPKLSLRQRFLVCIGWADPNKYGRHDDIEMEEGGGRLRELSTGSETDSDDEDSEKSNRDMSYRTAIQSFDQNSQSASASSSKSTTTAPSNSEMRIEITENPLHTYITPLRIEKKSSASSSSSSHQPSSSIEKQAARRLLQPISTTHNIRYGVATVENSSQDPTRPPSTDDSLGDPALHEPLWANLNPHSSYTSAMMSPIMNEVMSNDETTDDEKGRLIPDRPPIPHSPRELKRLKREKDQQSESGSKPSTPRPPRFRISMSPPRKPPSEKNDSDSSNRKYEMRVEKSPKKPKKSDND

[4] = molecular target: human TMC1 (FRET, CHO-K1 cells) (human) (UniProt Q8TDI8); test: as above
[5] = molecular target: T4, human TMC2 (FRET, CHO-K1 cells) (human) (UniProt Q8TDI7); test: as above
T4 sequence: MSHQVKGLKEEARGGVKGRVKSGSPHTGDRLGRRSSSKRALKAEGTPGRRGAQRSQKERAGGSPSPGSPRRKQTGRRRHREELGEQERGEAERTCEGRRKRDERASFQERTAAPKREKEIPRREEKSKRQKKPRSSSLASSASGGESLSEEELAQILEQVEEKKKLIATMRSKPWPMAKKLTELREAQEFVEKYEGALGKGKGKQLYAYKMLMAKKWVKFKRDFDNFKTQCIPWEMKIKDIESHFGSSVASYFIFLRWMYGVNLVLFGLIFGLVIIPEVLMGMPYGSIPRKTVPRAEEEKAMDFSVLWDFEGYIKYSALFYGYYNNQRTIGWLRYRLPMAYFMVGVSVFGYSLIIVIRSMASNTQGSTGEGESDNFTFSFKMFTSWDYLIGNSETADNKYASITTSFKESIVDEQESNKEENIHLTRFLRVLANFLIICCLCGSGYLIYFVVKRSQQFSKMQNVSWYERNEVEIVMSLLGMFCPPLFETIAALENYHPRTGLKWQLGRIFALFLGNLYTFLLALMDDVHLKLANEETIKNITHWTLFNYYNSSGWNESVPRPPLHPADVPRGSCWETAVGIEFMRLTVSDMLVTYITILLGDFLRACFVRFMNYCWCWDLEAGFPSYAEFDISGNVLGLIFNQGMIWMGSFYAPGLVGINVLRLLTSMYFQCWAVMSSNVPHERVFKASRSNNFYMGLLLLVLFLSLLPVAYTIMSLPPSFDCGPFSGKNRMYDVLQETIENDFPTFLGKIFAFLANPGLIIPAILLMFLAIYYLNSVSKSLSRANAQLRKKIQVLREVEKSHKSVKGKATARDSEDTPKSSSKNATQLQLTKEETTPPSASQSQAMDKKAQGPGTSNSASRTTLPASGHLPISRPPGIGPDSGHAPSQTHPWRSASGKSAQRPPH

[6] = molecular target: human TMC1 N terminus (coIP, HEK293T) (human) (UniProt Q8TDI8); test: co-IP; transfected HEK293T cells, lysis in 150 mM NaCl, 25 mM Tris-HCl, 1% NP-40, 1 mM EDTA, 5% glycerol, pH 7.4; GFP-Trap or anti-V5 agarose overnight at 4°C; western blot

3×FLAG-tagged CALM-1 (CALM-1-3×FLAG) (C. elegans)
binding [1]: binds

C. elegans CALM-1 (FRET, CHO-K1 cells) (from UniProt Q93640)
binding [2]: binds
binding [3]: binds
binding [4]: binds
binding [5]: binds

human CIB2 (coIP, HEK293T) (from UniProt O75838 1-187)
binding [6]: binds
